The whole screen tested about 1,400 compounds, of which about 45 (3%) were called active.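 Rule for the calls: active = half-maximal dose of signal decrease from fit no higher than ten times the top valid tested dose; inconclusive = fit invalid, or curve flat with 30 to 70% inhibition; inactive = the rest.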 The list shows a part of the results. Results with a measured potency or affinity are listed apart.
Target: Lysine-specific demethylase 4A (Homo sapiens) (UniProt O75164)
Assay: JMJD2A histone demethylase inhibitors, dose response, selectivity assay for GASC-1 inhibitor project, biochemical, DELFIA europium, cherry-picked samples (AID 488840);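 note: europium signal reports the dimethyl H3K9 product detected by antibody so inhibitors lower it; 0% = median of neutral control wells and -100% = median of positive control wells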
Conditions: GST-JMJD2A(1-420) H3K9me3 demethylation; at 6 µM (top of the series) unless noted

By UniProt entry, the sequences of proteins in these tests, tags left out. Where a name states a change or a piece, a line headed by the entry shows the natural chain unless it says otherwise.
UniProt O75164: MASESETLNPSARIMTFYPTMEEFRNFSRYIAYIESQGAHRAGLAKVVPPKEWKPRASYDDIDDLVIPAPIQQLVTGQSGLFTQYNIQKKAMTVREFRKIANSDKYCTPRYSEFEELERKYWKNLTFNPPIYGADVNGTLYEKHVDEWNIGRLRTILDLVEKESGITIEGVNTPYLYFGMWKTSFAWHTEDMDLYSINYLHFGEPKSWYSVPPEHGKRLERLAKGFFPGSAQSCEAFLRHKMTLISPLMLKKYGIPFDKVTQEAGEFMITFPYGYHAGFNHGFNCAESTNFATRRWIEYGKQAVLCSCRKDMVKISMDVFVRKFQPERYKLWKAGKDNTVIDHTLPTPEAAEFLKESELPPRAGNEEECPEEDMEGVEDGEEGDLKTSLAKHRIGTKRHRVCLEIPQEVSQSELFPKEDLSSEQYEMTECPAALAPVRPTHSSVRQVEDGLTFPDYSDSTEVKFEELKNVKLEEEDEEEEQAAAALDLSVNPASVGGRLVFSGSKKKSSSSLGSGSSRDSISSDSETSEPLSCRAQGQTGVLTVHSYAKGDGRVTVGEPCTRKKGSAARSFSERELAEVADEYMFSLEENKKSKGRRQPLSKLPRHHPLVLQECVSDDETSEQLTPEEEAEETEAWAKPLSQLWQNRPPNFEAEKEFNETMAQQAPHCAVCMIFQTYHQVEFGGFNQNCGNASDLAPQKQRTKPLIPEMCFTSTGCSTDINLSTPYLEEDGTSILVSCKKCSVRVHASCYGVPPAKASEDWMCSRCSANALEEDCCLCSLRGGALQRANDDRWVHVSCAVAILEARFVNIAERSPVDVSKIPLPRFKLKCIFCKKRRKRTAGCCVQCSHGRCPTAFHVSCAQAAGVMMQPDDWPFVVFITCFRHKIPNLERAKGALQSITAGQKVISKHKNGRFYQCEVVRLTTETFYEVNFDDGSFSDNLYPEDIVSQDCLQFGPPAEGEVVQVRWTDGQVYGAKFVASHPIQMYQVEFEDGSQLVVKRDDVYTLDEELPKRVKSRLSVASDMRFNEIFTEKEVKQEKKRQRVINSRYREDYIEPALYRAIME

Activity change, negative = inhibition, inactive:
Cc1ccc(S(=O)(=O)NCCC(=O)OCC(=O)Nc2ccccc2Cl)cc1 4.42%
COc1ccc(-n2c(C)cc(/C=N/Nc3nnc(C)n3N)c2C)cc1 -11.9%
OCC1=C[C@@H](O)[C@@H]2C=CO[C@@H](O[C@@H]3O[C@H](CO)[C@@H](O)[C@H](O)[C@H]3O)[C@H]12 2.96%
Nc1nnc(SC2CC(=O)N(c3ccccc3)C2=O)s1 (stereo not given) 7.79%
Cc1noc(C)c1NC(=O)N(C)C[C@H]1Oc2ccc(NC(=O)CCC(F)(F)F)cc2C(=O)N([C@H](C)CO)C[C@@H]1C 10.1%
C[C@H](CO)N1C[C@H](C)[C@@H](CN(C)Cc2ccc(Cl)c(Cl)c2)Oc2c(NS(=O)(=O)c3cccs3)cccc2C1=O 0.912%
COc1ccc(CCNC(=O)c2ccc(N3CCCCS3(=O)=O)cc2)cc1OC -0.105%
CC(NC(=O)NNC(N)=S)(C(F)(F)F)C(F)(F)F 1.73%
CCCNC(=S)Nc1ccc(Nc2ccccc2)cc1 -3.28%
CCOCCc1nnc(NC(=O)c2ccc(OC)c(OC)c2)s1 -0.873%
COc1cc(C)c(/C=C(\C#N)C(=O)Nc2ccc(C)cc2)cc1C(C)C 6.47%
COc1ccc(S(=O)(=O)NCCCCC(=O)O)cc1C(=O)O -6.28%
O=C(Cc1cccc2ccccc12)N1CCCc2ccccc21 4.99%
Cc1cc(-n2c(SCC(=O)NCc3cccs3)nc3n[nH]c(C)c3c2=N)ccc1Cl 1.76%
COC(=O)c1cc(S(=O)(=O)NCCCN2CCCC2=O)cn1C 2.09%
CCCC(=O)Nc1nn(C)c2nc3c(C)cccc3cc12 1.33%
COc1ccccc1-n1cnnc1SCC(=O)Nc1ncc(Cl)cc1Cl 4.36%
CC(C)(C)OC(=O)N[C@@H](Cc1ccccc1)C(=O)N[C@@H](CO)[C@H](O)[C@@H]1C[C@@H]1C(=O)NC1CCCCC1 -0.462%
FC(F)(F)c1ccccc1NC(=S)NN=C1CCCCCC1 7.26%
C[C@@H]1CN([C@H](C)CO)C(=O)c2cc(NC(=O)Nc3ccc(C(F)(F)F)cc3)ccc2O[C@H]1CN(C)S(=O)(=O)c1ccccc1 3.91%
COc1ccc(N2CCN(C(=O)Cn3nnc(-c4ccc(N(C)C)cc4)n3)CC2)cc1 -1.55%
O=C(NCCCN1CCOCC1)c1cccc(S(=O)(=O)N2CCc3ccccc3C2)c1 0.16%
CCCCNC(=O)CC1N=C2c3ccccc3N=C(SCC(=O)Nc3cccc(C)c3)N2C1=O (stereo not given) 1.99%
O=C(COC(=O)c1ccc(O)cc1)Nc1ccc(Cl)cc1 -3.11%
C[C@@H]1CN([C@H](C)CO)C(=O)c2cccc(NS(=O)(=O)c3ccccc3)c2O[C@H]1CN(C)C 5%
O=C(Nc1ccc(-c2nc3ncccc3o2)cc1)c1ccc(Br)o1 -1.12%
O=C(NCC1CCCO1)c1ccc2c(=O)n(Cc3cccc(Br)c3)c(=S)[nH]c2c1 (stereo not given) -0.668%
O=C(Cn1cncn1)NCc1cc(F)ccc1F 0.641%
CN(C)S(=O)(=O)c1cccc(NC(=S)NCc2ccc3c(c2)OCO3)c1 -0.0369%
COC(=O)c1cc(NC(=O)CSc2nncn2C)cc(C(=O)OC)c1 0.678%
O=C1CCN(Cc2ccc(O)cc2)CCN1[C@H](CO)Cc1ccccc1 5%
Cc1nc2cc(CO)ccc2n1C 3.76%
O=C(c1cccc(C(F)(F)F)c1)N1CCCC1 0.0679%
O=C(Nc1c(Cl)cccc1Cl)c1cc(-c2ccco2)on1 6.7%
Cc1cc(NS(=O)(=O)c2ccc(Nc3nc(-c4sc(N)nc4C)cs3)cc2)no1 1.78%
CC(C)NC(=O)N(C)C[C@H]1Oc2ccc(NS(=O)(=O)c3ccccc3)cc2C(=O)N([C@H](C)CO)C[C@H]1C -4.62%
O=c1c2ccccc2c(C=NCCCN2CCOCC2)c(O)n1Cc1ccccc1 2.21%
C[C@H](CO)N1C[C@H](C)[C@@H](CN(C)S(=O)(=O)c2cccs2)Oc2c(NC(=O)CCC(F)(F)F)cccc2C1=O 4.37%
O=C(CCN1C(=O)/C(=C/c2ccc(F)cc2)SC1=S)N[C@@H](CO)Cc1ccccc1 3.78%
Cn1nnnc1SCC(=O)NCC(=O)c1ccccc1 2.53%
CCN1c2ccccc2-c2nc3ccccc3n2C1c1ccccn1 (stereo not given) 4.5%
O=C(NCc1ccccc1Br)c1cccc2c1C(=O)c1ccc(N3CCC(Cc4ccccc4)CC3)cc1S2(=O)=O 13.4%
OC[C@H]1O[C@@H]2O[C@H]3[C@H](O)[C@@H](O)[C@@H](O[C@H]4[C@H](O)[C@@H](O)[C@@H](O[C@H]5[C@H](O)[C@@H](O)[C@@H](O[C@H]6[C@H](O)[C@@H](O)[C@@H](O[C@H]7[C@H](O)[C@@H](O)[C@@H](O[C@H]1[C@H](O)[C@H]2O)O[C@@H]7CO)O[C@@H]6CO)O[C@@H]5CO)O[C@@H]4CO)O[C@@H]3CO -0.776%
Cc1noc(C)c1COc1ccc(C(=O)OC(C)C(=O)Nc2ccc(N3CCOCC3)cc2)cc1 (stereo not given) -3.76%
Cc1cccc(NC(=O)C2CCCN(S(=O)(=O)c3c(C)nn(C)c3C)C2)n1 (stereo not given) -2.26%
FC(F)(F)c1cccc(NCc2cn3cccnc3n2)c1 -1.08%
Cc1ccc(NC(=O)c2cccc3c2C(=O)N(C2CCCCC2)C3)c(C)c1 -3.71%
C[C@H](CO)N1C[C@H](C)[C@H](CN(C)Cc2ccc(Oc3ccccc3)cc2)Oc2ccc(NC(=O)Nc3cccc4ccccc34)cc2CC1=O 2.16%
CCOC(=O)C1=C(C)NC2=C(C(=O)CCC2)C1c1coc2ccccc2c1=O (stereo not given) -2.43%
COc1ccc(NC(=O)N(C)C[C@@H]2Oc3c(NC(=O)Nc4c(C)noc4C)cccc3C(=O)N([C@@H](C)CO)C[C@@H]2C)cc1 1.31%

An excerpt from the list above:
Activity change, negative = inhibition, inactive:
Cc1cc(-n2c(SCC(=O)NCc3cccs3)nc3n[nH]c(C)c3c2=N)ccc1Cl 1.76%
COC(=O)c1cc(S(=O)(=O)NCCCN2CCCC2=O)cn1C 2.09%

Source: PubChem BioAssay AID488840 (Broad Institute, 2010)
